These are yes or no findings as the source states them, for the method shown. In cells and extracts the contact can be indirect. Binding calls can cover weak binding; strength is not graded here. Where a sequence is shown, tags or fusion partners need not be part of it.
T1: AOD2 protein carrying a triple myc tag at its carboxy-terminus (Neurospora crassa) (UniProt Q1K521)
T1 sequence: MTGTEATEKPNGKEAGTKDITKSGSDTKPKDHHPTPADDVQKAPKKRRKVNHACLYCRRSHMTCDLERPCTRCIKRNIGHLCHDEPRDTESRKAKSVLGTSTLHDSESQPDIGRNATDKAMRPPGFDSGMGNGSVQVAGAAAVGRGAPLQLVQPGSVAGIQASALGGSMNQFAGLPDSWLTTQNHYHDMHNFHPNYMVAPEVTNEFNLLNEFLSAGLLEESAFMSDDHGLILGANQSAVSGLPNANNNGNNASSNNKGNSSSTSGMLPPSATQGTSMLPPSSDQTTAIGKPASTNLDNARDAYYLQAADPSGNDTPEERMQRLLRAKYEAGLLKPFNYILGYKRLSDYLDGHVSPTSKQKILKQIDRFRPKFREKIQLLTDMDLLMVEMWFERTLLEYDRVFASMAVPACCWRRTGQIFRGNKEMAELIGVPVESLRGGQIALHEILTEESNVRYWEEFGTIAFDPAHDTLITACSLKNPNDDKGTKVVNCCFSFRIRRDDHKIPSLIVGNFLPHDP

B1: AOD2 protein carrying a triple myc tag at its carboxy-terminus (protein, UniProt Q1K521 1-517)
chain: T1 sequence

Legend:
[1] = target: T1, AOD2 protein carrying a triple myc tag at its carboxy-terminus (Neurospora crassa); assay: co-IP; proteins salt-extracted (0.2 M KCl final) from purified nuclei of the double-tagged strain, desalted; IP with anti-HA or anti-myc antibodies bound to agarose beads (Pierce ProFound HA or c-Myc Tag IP/Co-IP kit); blots of the eluates; cultures grown in the presence or absence of chloramphenicol (Cm), results virtually identical
[2] = target: AOD5 protein carrying a triple HA tag at its amino-terminus (Neurospora crassa); assay: as above

Row | Molecule | binding [1] | binding [2]
1 | AOD5 protein carrying a triple HA tag at its amino-terminus (Neurospora crassa) | binds | –
2 | B1 | – | binds

From paper PMC5295593
